{
  "source": "the supplement of paper PMC4604168 (melanoma cell lines)",
  "note": "Some of the results follow. Single values are uncertain, as repeats are few or missing.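 The apoptosis fraction was the count of cleaved-PARP antibody-stained nuclei relative to all DNA-stained nuclei, imaged in 1,536-well plates. Screening doses were set so most cells survived, and baseline and induced cleaved-PARP levels vary greatly across cell lines.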",
  "data": [
    {"system": "LOXIMVI", "test": "cleaved PARP positive nuclei fraction relative to DMSO control; melanoma cells; higher = more apoptosis", "conditions": "library dose: low library concentration; 72 h", "units": {"cleaved PARP positive nuclei fraction": "%"}, "values": [
      {"smiles": "CCc1ccc(CCOc2ccc(CC3SC(=O)NC3=O)cc2)nc1", "note": "(stereo unspecified) [pioglitazone] + CCCCCCCCCCCC1=C(O)C(=O)C=C(O)C1=O [Embelin] (first compound 2 µM, partner dose 1.2 µM)", "cleaved PARP positive nuclei fraction": 57.1},
      {"smiles": "CN(C)S(=O)(=O)c1ccc2c(c1)/C(=C/c1cc3c([nH]1)CCCC3)C(=O)N2", "note": "+ c1cc(-c2cnn3cc(-c4ccc(OCCN5CCCCC5)cc4)cnc23)ccn1 [Dorsomorphin] (first compound 0.4 µM, partner dose 0.4 µM)", "cleaved PARP positive nuclei fraction": 62.4},
      {"smiles": "O=C(Nc1ccccc1)c1cc([N+](=O)[O-])ccc1Cl", "note": "+ O=c1cc(-c2cccc3c2Sc2ccccc2S3)oc(N2CCOCC2)c1 [KU55933] (first compound 2 µM, partner dose 1 µM)", "cleaved PARP positive nuclei fraction": 41.6},
      {"smiles": "COc1cc2ncnc(Nc3ccc(Oc4ccccc4)cc3)c2cc1OC", "note": "+ O=C(O)C(=O)Nc1sc2c(c1C(=O)O)CCNC2 [TCS401] (first compound 2 µM, partner dose 1.66667 µM)", "cleaved PARP positive nuclei fraction": 98.1},
      {"smiles": "COc1ccc(-c2ccc3c(N4CCOCC4)nc(N4C[C@@H](C)O[C@@H](C)C4)nc3n2)cc1CO", "note": "+ Oc1nc(-c2ccc(C(F)(F)F)cc2)nc2c1CSCC2 [XAV939] (first compound 0.02 µM, partner dose 2 µM)", "cleaved PARP positive nuclei fraction": 40},
      {"smiles": "CN(NC(=O)CC(=O)NN(C)C(=S)c1ccccc1)C(=S)c1ccccc1", "note": "+ CCc1ccc(CCOc2ccc(CC3SC(=O)NC3=O)cc2)nc1 [pioglitazone] (first compound 0.006 µM, partner dose 2 µM)", "cleaved PARP positive nuclei fraction": 53.5},
      {"smiles": "CCc1ccc(CCOc2ccc(CC3SC(=O)NC3=O)cc2)nc1", "note": "(stereo unspecified) [pioglitazone] + Cc1cc([N+](=O)[O-])ccc1NS(=O)(=O)c1cc(Cl)ccc1Cl [FH535] (first compound 2 µM, partner dose 1 µM)", "cleaved PARP positive nuclei fraction": 36.4},
      {"smiles": "CCN(CC)CCCCNc1ncc2cc(-c3cc(OC)cc(OC)c3)c(NC(=O)NC(C)(C)C)nc2n1", "note": "+ O=c1cc(-c2cccc3c2Sc2ccccc2S3)oc(N2CCOCC2)c1 [KU55933] (first compound 0.1 µM, partner dose 1 µM)", "cleaved PARP positive nuclei fraction": 52},
      {"smiles": "COc1ccc(COc2ccc(Cc3cnc(N)nc3N)cc2OC)cc1", "note": "+ O=C1NC(=O)/C(=C/c2ccc(-c3ccc(F)cc3O)o2)S1 [AS252424] (first compound 1 µM, partner dose 1 µM)", "cleaved PARP positive nuclei fraction": 67.9},
      {"smiles": "Oc1cc(-c2nc(-c3ccccc3)[nH]c2-c2ccncc2)ccc1Cl", "note": "+ Cn1cc(/C=C2\\C(=O)Nc3cccnc32)c2ccccc21 [GW441756] (first compound 0.2 µM, partner dose 0.4 µM)", "cleaved PARP positive nuclei fraction": 63.3},
      {"smiles": "NCC(=O)Nc1ccc(-n2nc(C(F)(F)F)cc2-c2ccc3c(ccc4ccccc43)c2)cc1", "note": "+ Oc1cc(-c2nc(-c3ccccc3)[nH]c2-c2ccncc2)ccc1Cl [L779450] (first compound 1 µM, partner dose 0.2 µM)", "cleaved PARP positive nuclei fraction": 39.6},
      {"smiles": "O=S(=O)(c1ccccc1)N(CC(F)(F)F)c1ccc(C(O)(C(F)(F)F)C(F)(F)F)cc1", "note": "+ CC(C)CCN1c2nc(Nc3cc(F)c(O)c(F)c3)ncc2N(C)C(=O)C1C [BID1870] (first compound 1.4 µM, partner dose 0.2 µM)", "cleaved PARP positive nuclei fraction": 73.6},
      {"smiles": "Cn1cc(/C=C2\\C(=O)Nc3cccnc32)c2ccccc21", "note": "+ CC(C)CCN1c2nc(Nc3cc(F)c(O)c(F)c3)ncc2N(C)C(=O)C1C [BID1870] (first compound 0.4 µM, partner dose 0.2 µM)", "cleaved PARP positive nuclei fraction": 26.5},
      {"smiles": "O=C1NC(=O)/C(=C/c2ccc(-c3ccc(F)cc3O)o2)S1", "note": "+ COc1cc(N2CCC(N3CCN(C)CC3)CC2)ccc1Nc1ncc(Cl)c(Nc2ccccc2S(=O)(=O)C(C)C)n1 [NVP-TAE684] (first compound 1 µM, partner dose 0.08 µM)", "cleaved PARP positive nuclei fraction": 39.5},
      {"smiles": "N#Cc1c(O)c2c(-c3ccc(-c4ccccc4O)cc3)csc2[nH]c1=O", "note": "+ CCN(CC)CCCCNc1ncc2cc(-c3cc(OC)cc(OC)c3)c(NC(=O)NC(C)(C)C)nc2n1 [PD173074] (first compound 2 µM, partner dose 0.1 µM)", "cleaved PARP positive nuclei fraction": 64.8},
      {"smiles": "CN(C)S(=O)(=O)c1ccc2c(c1)/C(=C/c1cc3c([nH]1)CCCC3)C(=O)N2", "note": "+ COc1ccc2c(c1)CCC1C2CCC2(C)C(NCCCCCCN3C(=O)C=CC3=O)CCC12 [U73122] (first compound 0.4 µM, partner dose 0.4 µM)", "cleaved PARP positive nuclei fraction": 50},
      {"smiles": "Oc1cc(-c2nc(-c3ccccc3)[nH]c2-c2ccncc2)ccc1Cl", "note": "+ c1cc(-c2cnn3cc(-c4ccc(OCCN5CCCCC5)cc4)cnc23)ccn1 [Dorsomorphin] (first compound 0.2 µM, partner dose 0.4 µM)", "cleaved PARP positive nuclei fraction": 51.5},
      {"smiles": "Oc1nc(-c2ccc(C(F)(F)F)cc2)nc2c1CSCC2", "note": "+ CCCCCCCCCCCC1=C(O)C(=O)C=C(O)C1=O [Embelin] (first compound 2 µM, partner dose 1.2 µM)", "cleaved PARP positive nuclei fraction": 32.4},
      {"smiles": "CN(C)S(=O)(=O)c1ccc2c(c1)/C(=C/c1cc3c([nH]1)CCCC3)C(=O)N2", "note": "+ CCN(CC)CCCCNc1ncc2cc(-c3cc(OC)cc(OC)c3)c(NC(=O)NC(C)(C)C)nc2n1 [PD173074] (first compound 0.4 µM, partner dose 0.1 µM)", "cleaved PARP positive nuclei fraction": 35.8},
      {"smiles": "COc1ccc(-c2ccc3c(N4CCOCC4)nc(N4C[C@@H](C)O[C@@H](C)C4)nc3n2)cc1CO", "note": "+ O=c1cc(-c2cccc3c2Sc2ccccc2S3)oc(N2CCOCC2)c1 [KU55933] (first compound 0.02 µM, partner dose 1 µM)", "cleaved PARP positive nuclei fraction": 166},
      {"smiles": "NCC(=O)Nc1ccc(-n2nc(C(F)(F)F)cc2-c2ccc3c(ccc4ccccc43)c2)cc1", "note": "+ Cn1cc(/C=C2\\C(=O)Nc3cccnc32)c2ccccc21 [GW441756] (first compound 1 µM, partner dose 0.4 µM)", "cleaved PARP positive nuclei fraction": 90.4},
      {"smiles": "COc1ccc(-c2ccc3c(N4CCOCC4)nc(N4C[C@@H](C)O[C@@H](C)C4)nc3n2)cc1CO", "note": "+ CC(C)CCN1c2nc(Nc3cc(F)c(O)c(F)c3)ncc2N(C)C(=O)C1C [BID1870] (first compound 0.02 µM, partner dose 0.2 µM)", "cleaved PARP positive nuclei fraction": 1030},
      {"smiles": "CCN(CC)CCCCNc1ncc2cc(-c3cc(OC)cc(OC)c3)c(NC(=O)NC(C)(C)C)nc2n1", "note": "+ Cc1cc([N+](=O)[O-])ccc1NS(=O)(=O)c1cc(Cl)ccc1Cl [FH535] (first compound 0.1 µM, partner dose 1 µM)", "cleaved PARP positive nuclei fraction": 71.9},
      {"smiles": "COc1cc2c(Oc3ccc4[nH]c(C)cc4c3F)ncnc2cc1OCCCN1CCCC1", "note": "[cediranib] + CCN(CC)CCCCNc1ncc2cc(-c3cc(OC)cc(OC)c3)c(NC(=O)NC(C)(C)C)nc2n1 [PD173074] (first compound 0.4 µM, partner dose 0.1 µM)", "cleaved PARP positive nuclei fraction": 53.3},
      {"smiles": "O=C(O)c1ccc(-c2c[nH]c3ncc(-c4ccccc4)cc23)cc1C1CCCC1", "note": "+ Cn1cc(/C=C2\\C(=O)Nc3cccnc32)c2ccccc21 [GW441756] (first compound 0.16 µM, partner dose 0.4 µM)", "cleaved PARP positive nuclei fraction": 215},
      {"smiles": "O=C(O)c1ccc(-c2c[nH]c3ncc(-c4ccccc4)cc23)cc1C1CCCC1", "note": "+ Oc1nc(-c2ccc(C(F)(F)F)cc2)nc2c1CSCC2 [XAV939] (first compound 0.16 µM, partner dose 2 µM)", "cleaved PARP positive nuclei fraction": 41.6},
      {"smiles": "N#Cc1c(O)c2c(-c3ccc(-c4ccccc4O)cc3)csc2[nH]c1=O", "note": "+ COc1cc(N2CCC(N3CCN(C)CC3)CC2)ccc1Nc1ncc(Cl)c(Nc2ccccc2S(=O)(=O)C(C)C)n1 [NVP-TAE684] (first compound 2 µM, partner dose 0.08 µM)", "cleaved PARP positive nuclei fraction": 60},
      {"smiles": "Oc1cc(-c2nc(-c3ccccc3)[nH]c2-c2ccncc2)ccc1Cl", "note": "+ COc1cc(N2CCC(N3CCN(C)CC3)CC2)ccc1Nc1ncc(Cl)c(Nc2ccccc2S(=O)(=O)C(C)C)n1 [NVP-TAE684] (first compound 0.2 µM, partner dose 0.08 µM)", "cleaved PARP positive nuclei fraction": 155},
      {"smiles": "COc1ccc2c(c1)CCC1C2CCC2(C)C(NCCCCCCN3C(=O)C=CC3=O)CCC12", "note": "(stereo unspecified) + Oc1cc(-c2nc(-c3ccccc3)[nH]c2-c2ccncc2)ccc1Cl [L779450] (first compound 0.4 µM, partner dose 0.2 µM)", "cleaved PARP positive nuclei fraction": 67.4},
      {"smiles": "COc1cc2c(Oc3ccc4[nH]c(C)cc4c3F)ncnc2cc1OCCCN1CCCC1", "note": "[cediranib] + Oc1cc(-c2nc(-c3ccccc3)[nH]c2-c2ccncc2)ccc1Cl [L779450] (first compound 0.4 µM, partner dose 0.2 µM)", "cleaved PARP positive nuclei fraction": 50.1},
      {"smiles": "O=S(=O)(c1ccccc1)N(CC(F)(F)F)c1ccc(C(O)(C(F)(F)F)C(F)(F)F)cc1", "note": "+ Cn1cc(/C=C2\\C(=O)Nc3cccnc32)c2ccccc21 [GW441756] (first compound 1.4 µM, partner dose 0.4 µM)", "cleaved PARP positive nuclei fraction": 97.9},
      {"smiles": "N#Cc1c(O)c2c(-c3ccc(-c4ccccc4O)cc3)csc2[nH]c1=O", "note": "+ CC(C)CCN1c2nc(Nc3cc(F)c(O)c(F)c3)ncc2N(C)C(=O)C1C [BID1870] (first compound 2 µM, partner dose 0.2 µM)", "cleaved PARP positive nuclei fraction": 41.5},
      {"smiles": "O=S(=O)(c1ccccc1)N(CC(F)(F)F)c1ccc(C(O)(C(F)(F)F)C(F)(F)F)cc1", "note": "+ Oc1cc(-c2nc(-c3ccccc3)[nH]c2-c2ccncc2)ccc1Cl [L779450] (first compound 1.4 µM, partner dose 0.2 µM)", "cleaved PARP positive nuclei fraction": 78.7},
      {"smiles": "CN(NC(=O)CC(=O)NN(C)C(=S)c1ccccc1)C(=S)c1ccccc1", "note": "+ COC(=O)c1sccc1S(=O)(=O)Nc1ccc(Nc2ccccc2)cc1OC [GSK0660] (first compound 0.006 µM, partner dose 1 µM)", "cleaved PARP positive nuclei fraction": 35.5},
      {"smiles": "COc1cc2c(Oc3ccc4[nH]c(C)cc4c3F)ncnc2cc1OCCCN1CCCC1", "note": "[cediranib] + O=C(O)C(=O)Nc1sc2c(c1C(=O)O)CCNC2 [TCS401] (first compound 0.4 µM, partner dose 1.66667 µM)", "cleaved PARP positive nuclei fraction": 60.2},
      {"smiles": "COC(=O)c1sccc1S(=O)(=O)Nc1ccc(Nc2ccccc2)cc1OC", "note": "+ CCCCCCCCCCCC1=C(O)C(=O)C=C(O)C1=O [Embelin] (first compound 1 µM, partner dose 1.2 µM)", "cleaved PARP positive nuclei fraction": 49.7}
    ]}
  ]
}
